Laboratory results reported in patent publication US20150017230A1 (ACADEMIA SINICA, published 2015).
These are yes or no findings as the source states them, for the method shown. Some entries that bind do so weakly or less than the wild type. For some of these results: Tags and fused reporters may be left off the sequences shown.

What was measured:
[1] = biological target: T1, human epithelial cell adhesion molecule (EpCAM), endogenous in SAS and other cancer cells (human) (UniProt P16422); assay: summary statement on EpAb2-6 in the results
T1 sequence: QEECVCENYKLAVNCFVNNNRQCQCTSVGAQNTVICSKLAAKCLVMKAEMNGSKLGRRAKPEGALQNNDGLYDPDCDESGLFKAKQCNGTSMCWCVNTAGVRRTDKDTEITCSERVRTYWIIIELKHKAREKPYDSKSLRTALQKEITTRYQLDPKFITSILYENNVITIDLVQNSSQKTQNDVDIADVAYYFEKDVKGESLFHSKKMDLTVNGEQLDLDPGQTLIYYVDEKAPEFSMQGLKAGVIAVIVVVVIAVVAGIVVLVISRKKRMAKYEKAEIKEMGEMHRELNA

[2] = biological target: T1, human epithelial cell adhesion molecule (EpCAM), endogenous in SAS and other cancer cells (human); assay: Western blot of NNM, SAS and HCT116 lysates
[3] = biological target: T1, human epithelial cell adhesion molecule (EpCAM), endogenous in SAS and other cancer cells (human); assay: cellular ELISA on SAS cells, OD490nm
[4] = biological target: T1, human epithelial cell adhesion molecule (EpCAM), endogenous in SAS and other cancer cells (human); assay: summary table; grades are cellular ELISA OD 490nm classes
[5] = biological target: T2, wild-type human EpCAM expressed from pcDNA3.1/V5-His in HEK293 cells (human) (UniProt P16422); assay: Western blot of lysates of HEK293 cells transfected with EpCAM-V5 constructs
T2 sequence: T1 sequence

[6] = biological target: T1, human epithelial cell adhesion molecule (EpCAM), endogenous in SAS and other cancer cells (human); assay: immunofluorescence staining of SAS, HCT116 and NNM cells
[7] = biological target: T1, human epithelial cell adhesion molecule (EpCAM), endogenous in SAS and other cancer cells (human); assay: Western blot of SAS, HCT116 and NNM lysates

binding [1]: binds
binding [2]: binds
binding [3]: binds
binding [4]: binds
binding [5]: binds
binding [6]: binds
binding [7]: binds
B1: EpAb2-6 (antibody, V domains shown)
VH: EVQLVESGPELKKPGETVKISCKASGYTFTDYSMHWVKQAPGKGLKWMGWINTETGEPTFADDFKGRFAFSLETSARTTYLQINNLKNEDTATYFCARTAVYWGQGTSLTVSS
VL: DIQLTQSPSSLSASLGERVSLTCRASQEISVSLSWLQQKPDGTIKRLIYATSTLDSGVPKRFSGSRSGSDYSLTISSLESEDFADYYCLQYASYPWTFGGGTKLEIKR
notes: Mouse hybridoma monoclonal IgG; also called mEpAb2-6; murine EpAb2-6
